Melting temperature shift data for 1 compound are collected here from the supplement of paper PMC12595434, “Development of retinoid nuclear receptor pathway antagonists through targeting aldehyde dehydrogenase 1A3” (iScience, 2025).

By UniProt entry, the sequences of proteins in these tests, tags left out.
UniProt Q13733, whole entry: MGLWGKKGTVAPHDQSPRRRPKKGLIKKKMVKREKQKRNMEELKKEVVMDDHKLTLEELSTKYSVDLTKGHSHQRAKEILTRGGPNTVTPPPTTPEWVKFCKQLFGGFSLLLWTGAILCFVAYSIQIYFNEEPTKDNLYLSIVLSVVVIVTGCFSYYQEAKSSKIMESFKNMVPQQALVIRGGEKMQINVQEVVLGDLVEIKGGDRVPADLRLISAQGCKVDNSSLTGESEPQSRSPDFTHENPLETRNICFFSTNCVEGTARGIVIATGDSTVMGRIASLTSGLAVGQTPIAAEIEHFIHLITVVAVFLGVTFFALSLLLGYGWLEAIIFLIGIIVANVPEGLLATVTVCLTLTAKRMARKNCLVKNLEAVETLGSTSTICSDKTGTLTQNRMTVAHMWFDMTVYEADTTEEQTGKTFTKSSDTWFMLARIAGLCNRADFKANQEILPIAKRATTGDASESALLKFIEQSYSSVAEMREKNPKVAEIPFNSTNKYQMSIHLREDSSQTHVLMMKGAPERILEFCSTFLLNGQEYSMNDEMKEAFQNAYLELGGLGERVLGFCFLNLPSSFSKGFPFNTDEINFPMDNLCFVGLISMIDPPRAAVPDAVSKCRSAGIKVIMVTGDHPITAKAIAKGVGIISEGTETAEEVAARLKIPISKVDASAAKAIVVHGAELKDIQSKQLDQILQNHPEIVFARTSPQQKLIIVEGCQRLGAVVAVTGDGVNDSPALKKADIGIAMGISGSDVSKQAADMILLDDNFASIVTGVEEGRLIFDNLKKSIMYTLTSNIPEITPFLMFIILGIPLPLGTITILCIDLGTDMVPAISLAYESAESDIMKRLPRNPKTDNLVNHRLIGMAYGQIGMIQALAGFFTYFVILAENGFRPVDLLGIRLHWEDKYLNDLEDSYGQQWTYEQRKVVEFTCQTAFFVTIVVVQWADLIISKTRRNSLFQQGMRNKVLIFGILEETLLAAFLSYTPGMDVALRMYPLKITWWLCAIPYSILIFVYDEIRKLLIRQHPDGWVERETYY

For this experiment, the target named is UniProt Q13733. Put plainly: melting temperature shift (DMSO Tm minus MBE1-treated Tm) in cellular thermal proteome profiling; higher = less thermal stabilization by MBE1 (negative = stabilized by MBE1). Particulars: A375.

The list shows a part of the results. This is a noisy data set.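 Tm was set to 64 °C where no melting was found, and many curves are irregular.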

Consider `CCc1cnccc1C(=O)Nc1cc2c(cc1F)NC(=O)CC2`, for which the melting temperature shift (MBE1 concentration: 100 nM) is -1.08 °C and the melting temperature shift (MBE1 concentration: 1 uM) is -0.726 °C.
